Source: paper PMC12442624
These are yes or no findings as the source states them, for the method shown. In cells and extracts the contact can be indirect. Some results given as binding are weak or reduced against the parent protein; the word gives no strength.

Chains of the proteins cited; added tags and fusions are not shown.
UniProt P39688: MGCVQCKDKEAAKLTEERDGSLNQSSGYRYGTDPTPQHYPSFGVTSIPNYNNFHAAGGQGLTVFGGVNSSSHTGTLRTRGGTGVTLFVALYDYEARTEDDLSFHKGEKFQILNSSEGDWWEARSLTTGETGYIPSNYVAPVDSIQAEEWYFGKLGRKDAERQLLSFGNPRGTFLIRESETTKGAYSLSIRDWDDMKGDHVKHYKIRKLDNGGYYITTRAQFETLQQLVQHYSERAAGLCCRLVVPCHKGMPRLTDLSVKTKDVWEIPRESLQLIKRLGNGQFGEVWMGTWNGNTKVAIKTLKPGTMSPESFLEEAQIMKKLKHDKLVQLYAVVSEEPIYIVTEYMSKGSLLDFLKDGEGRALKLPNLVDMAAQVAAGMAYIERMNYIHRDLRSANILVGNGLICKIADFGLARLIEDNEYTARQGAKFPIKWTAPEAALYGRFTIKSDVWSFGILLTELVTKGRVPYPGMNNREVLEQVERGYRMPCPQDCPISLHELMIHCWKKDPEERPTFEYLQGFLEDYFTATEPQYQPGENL

Tests used:
[1] = molecular target: T1, Kir4.1 protein (kcnj10-encoded inwardly rectifying potassium channel) (mouse (endogenous in OPCs)) (UniProt Q9JM63); assay: co-IP; reciprocal co-immunoprecipitation of endogenous proteins in OPCs; no further conditions told
T1 sequence: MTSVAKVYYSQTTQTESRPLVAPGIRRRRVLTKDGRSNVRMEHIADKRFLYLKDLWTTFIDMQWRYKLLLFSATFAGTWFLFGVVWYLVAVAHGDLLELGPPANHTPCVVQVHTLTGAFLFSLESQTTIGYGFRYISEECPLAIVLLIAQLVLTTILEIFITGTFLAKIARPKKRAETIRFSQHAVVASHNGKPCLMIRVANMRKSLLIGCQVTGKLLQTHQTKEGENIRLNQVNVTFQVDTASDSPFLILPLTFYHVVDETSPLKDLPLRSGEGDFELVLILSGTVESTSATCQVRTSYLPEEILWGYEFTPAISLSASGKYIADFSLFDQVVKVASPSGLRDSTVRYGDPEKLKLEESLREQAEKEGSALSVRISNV

[2] = molecular target: FYN tyrosine kinase (mouse (endogenous in OPCs)) (UniProt P39688); assay: as above

FYN tyrosine kinase (from UniProt P39688 1-537)
binding [1]: binds

B1: Kir4.1 protein (kcnj10-encoded inwardly rectifying potassium channel) (protein, UniProt Q9JM63 1-379)
chain: T1 sequence
binding [2]: binds
